Experimental data as given in patent US20160108128A1 (CANCER RESEARCH TECHNOLOGY, published 2016).
Substitutions are numbered along the chain they refer to. These are yes or no findings as the source states them, for the method shown. Some binding calls cover weakened binding; strength is not graded here.

By UniProt entry, the sequences of proteins in these tests, tags left out. Residues count along the entry.
UniProt P78504, residues 34-1218: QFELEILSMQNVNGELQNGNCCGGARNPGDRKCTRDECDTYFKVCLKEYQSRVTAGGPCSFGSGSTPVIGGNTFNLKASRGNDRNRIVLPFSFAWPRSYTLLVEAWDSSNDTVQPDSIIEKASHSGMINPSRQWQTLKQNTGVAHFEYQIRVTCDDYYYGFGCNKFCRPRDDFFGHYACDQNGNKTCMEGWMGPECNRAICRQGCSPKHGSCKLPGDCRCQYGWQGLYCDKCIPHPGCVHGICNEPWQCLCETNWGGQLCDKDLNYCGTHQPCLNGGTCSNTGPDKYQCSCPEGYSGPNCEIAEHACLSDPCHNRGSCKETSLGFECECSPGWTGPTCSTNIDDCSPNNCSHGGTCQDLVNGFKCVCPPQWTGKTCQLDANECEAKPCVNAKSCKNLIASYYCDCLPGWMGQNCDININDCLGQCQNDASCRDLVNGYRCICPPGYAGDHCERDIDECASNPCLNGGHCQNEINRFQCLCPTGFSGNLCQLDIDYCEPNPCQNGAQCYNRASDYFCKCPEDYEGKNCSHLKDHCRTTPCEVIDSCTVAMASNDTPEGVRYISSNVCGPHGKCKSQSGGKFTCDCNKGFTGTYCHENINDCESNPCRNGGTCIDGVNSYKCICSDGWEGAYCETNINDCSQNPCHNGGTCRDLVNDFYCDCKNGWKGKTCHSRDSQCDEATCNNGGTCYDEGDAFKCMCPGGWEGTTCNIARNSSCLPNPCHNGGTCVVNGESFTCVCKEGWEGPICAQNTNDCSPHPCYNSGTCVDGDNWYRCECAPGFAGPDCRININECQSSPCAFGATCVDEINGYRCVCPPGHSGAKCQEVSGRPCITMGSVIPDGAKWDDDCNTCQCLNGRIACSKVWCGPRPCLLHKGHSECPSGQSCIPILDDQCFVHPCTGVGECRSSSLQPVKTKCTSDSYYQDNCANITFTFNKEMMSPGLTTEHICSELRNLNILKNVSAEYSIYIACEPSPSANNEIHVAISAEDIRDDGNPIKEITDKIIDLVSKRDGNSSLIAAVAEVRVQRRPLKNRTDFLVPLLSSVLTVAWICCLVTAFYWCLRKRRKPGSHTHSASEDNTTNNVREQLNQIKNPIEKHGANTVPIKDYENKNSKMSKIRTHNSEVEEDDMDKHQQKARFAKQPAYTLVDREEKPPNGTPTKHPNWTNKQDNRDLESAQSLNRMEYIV

B1: J1-65D variant 6 (antibody, human IgG1, V domains shown)
VH: QVQLVQSGAELKKPGSSVKVSCKASGYTFTDYEMHWVRQAPGQGLEWMGAIQPGGGGTAYAQKFKGRVTLTADKSTSTAYMELSSLRSEDTAVYYCTRRGYDDYPFAYWGQGTLVTVSS
VL: DIQMTQSPSSLSASVGDRVTITCRASGNIHNYLAWYQQKPGKAPKLLIYNAKTLADAVPSRFSGSGSGTDYTLTISSLQPEDFATYYCQHFWSAPWTFGGGTKLEIKR
notes: human IgG1; also called J1-65DV6; V6
B2: J1-65D variant 11 (antibody, human IgG1, V domains shown)
VH: B1 VH with L11V, K65Q
VL: B1 VL with G100Q
notes: human IgG1; also called J1-65DV11; V11
B3: J1-65D variant 8 (antibody, human IgG1, V domains shown)
VH: B1 VH with L11V, K65Q, L70I
VL: B1 VL
notes: human IgG1; also called J1-65DV8; V8
B4: J1-65D variant 10 (antibody, human IgG1, V domains shown)
VH: B1 VH
VL: B1 VL with G100Q
notes: human IgG1; also called J1-65DV10; V10
B5: J1-65D variant 4 (antibody, human IgG1, V domains shown)
VH: B1 VH with L11V, K65Q, L70I
VL: B1 VL with A57D
notes: human IgG1; also called J1-65DV4; V4
B6: J1-65D variant 7 (antibody, human IgG1, V domains shown)
VH: B1 VH with L11V, K65Q
VL: B1 VL
notes: human IgG1; also called J1-65DV7; V7
B7: J1-65D variant 2 (antibody, human IgG1, V domains shown)
VH: B1 VH
VL: B1 VL with A57D
notes: human IgG1; also called J1-65DV2; V2
B8: J1-65D variant 5 (antibody, human IgG1, V domains shown)
VH: B1 VH with A61N
VL: B1 VL
notes: human IgG1; also called J1-65DV5; V5
B9: J1-65D variant 9 (antibody, human IgG1, V domains shown)
VH: B1 VH with A61N
VL: B1 VL with G100Q
notes: human IgG1; also called J1-65DV9; V9
B10: J1-65D variant 3 (antibody, human IgG1, V domains shown)
VH: B1 VH with L11V, K65Q
VL: B1 VL with A57D
notes: human IgG1; also called J1-65DV3; V3
B11: J1-65D variant 12 (antibody, human IgG1, V domains shown)
VH: B1 VH with L11V, K65Q, L70I
VL: B1 VL with G100Q
notes: human IgG1; also called J1-65DV12; V12
B12: J1-65D variant 1 (antibody, human IgG1, V domains shown)
VH: B1 VH with A61N
VL: B1 VL with A57D
notes: human IgG1; also called J1-65DV1; V1
B13: J1-65D chimeric (antibody, human IgG1, V domains shown)
VH: QVQLQQPGAELVRPGASVKLSCKALGYTFTDYEMHWVKETPVHGLEWIGAIQPGGGGTAYNQKFKGKATLTADKSSSTAYMELSSLTSEDSAVYYCTRRGYDDYPFAYWGQGTLVTVSS
VL: DIQLTQSPASLSASVGETVTITCRASGNIHNYLAWYQQKQGKSPQLLVYNAKTLADDIPSRFSGSGSGTQYSLKINSLQPEDFGSYYCQHFWSAPWTFGGGTKLEIK
notes: chimeric antibody with unaltered CDRs; vectors encode human IgG1
B14: J1-183D variant 10 (antibody, human IgG1, V domains shown)
VH: QVQLVQSGAELKKPGASVKVSCKVSGYAFTDYAIHWIRQAPGQGLEWMGIINTYYGDSKYAQKFQGRVTMTVDTSTSTAYMELSSLRSEDTAVYYCARGYDGFAYWGQGTLVTVSS
VL: DIQMTQSPSSLSASVGDRVTITCRTSENIYSYLTWYQQKPGKAPKLLIYNAKILDSGVPSRFSGSGSGTDFTLTISSLQPEDFATYYCQHHYDIPWTFGGGTKLEIKR
notes: human IgG1; also called J1-183DV10; V10
B15: J1-183D variant 14 (antibody, human IgG1, V domains shown)
VH: B14 VH
VL: B14 VL with N50H
notes: human IgG1; also called J1-183DV14; V14
B16: J1-183D variant 15 (antibody, human IgG1, V domains shown)
VH: B14 VH with I37V
VL: B14 VL with N50H
notes: human IgG1; also called J1-183DV15; V15
B17: J1-183D variant 1 (antibody, human IgG1, V domains shown)
VH: B14 VH with A61N, Q65K, G66D, T74K
VL: B14 VL with I48V, D55A, S56A
notes: human IgG1; also called J1-183DV1; V1
B18: J1-183D variant 16 (antibody, human IgG1, V domains shown)
VH: B14 VH with L11V, V24A, A28T, I37V
VL: B14 VL with N50H
notes: human IgG1; also called J1-183DV16; V16
B19: J1-183D variant 12 (antibody, human IgG1, V domains shown)
VH: B14 VH with L11V, V24A, A28T, I37V
VL: B14 VL
notes: human IgG1; also called J1-183DV12; V12
B20: J1-183D variant 3 (antibody, human IgG1, V domains shown)
VH: B14 VH with I37V
VL: B14 VL with I48V, D55A, S56A
notes: human IgG1; also called J1-183DV3; V3
B21: J1-183D variant 2 (antibody, human IgG1, V domains shown)
VH: B14 VH
VL: B14 VL with I48V, D55A, S56A
notes: human IgG1; also called J1-183DV2; V2
B22: J1-183D variant 7 (antibody, human IgG1, V domains shown)
VH: B14 VH with I37V
VL: B14 VL with I53T, D55A
notes: human IgG1; also called J1-183DV7; V7
B23: J1-183D variant 11 (antibody, human IgG1, V domains shown)
VH: B14 VH with I37V
VL: B14 VL
notes: human IgG1; also called J1-183DV11; V11
B24: J1-183D variant 13 (antibody, human IgG1, V domains shown)
VH: B14 VH with A61N, Q65K, G66D, T74K
VL: B14 VL with N50H
notes: human IgG1; also called J1-183DV13; V13
B25: J1-183D variant 5 (antibody, human IgG1, V domains shown)
VH: B14 VH with A61N, Q65K, G66D, T74K
VL: B14 VL with I53T, D55A
notes: human IgG1; also called J1-183DV5; V5
B26: J1-183D variant 9 (antibody, human IgG1, V domains shown)
VH: B14 VH with A61N, Q65K, G66D, T74K
VL: B14 VL
notes: human IgG1; also called J1-183DV9; V9
B27: J1-183D variant 4 (antibody, human IgG1, V domains shown)
VH: B14 VH with L11V, V24A, A28T, I37V
VL: B14 VL with I48V, D55A, S56A
notes: human IgG1; also called J1-183DV4; V4
B28: J1-183D variant 6 (antibody, human IgG1, V domains shown)
VH: B14 VH
VL: B14 VL with I53T, D55A
notes: human IgG1; also called J1-183DV6; V6
B29: J1-183D variant 8 (antibody, human IgG1, V domains shown)
VH: B14 VH with L11V, V24A, A28T, I37V
VL: B14 VL with I53T, D55A
notes: human IgG1; also called J1-183DV8; V8
B30: J1-183D chimeric (antibody, human IgG1, V domains shown)
VH: QVQLQQPGTELVRPGVSVKISCKVSGYAFTDYAIHWIMQSHAKSLEWIGIINTYYGDSKYNQKFKDKATMTVDKSSNTAYMELARLTSEDSAIYYCARGYDGFAYWGQGTLVTVSS
VL: DIQLTQSPASLSASVGETVTFTCRTSENIYSYLTWYQQKQGKSPQLLVYNAKILAAGVPSRFSGYGSGTQFSLKINSLQPEDFGTYYCQHHYDIPWTFGGGTKLEIK
notes: as for B13

Target: T1, human Jagged 1, full length, on cells (human, UniProt P78504 34-1218)
T1 construct: whole, on cells; the cell is named under assay; also called hJ1; J1
Test: FACS, 293-JAG1 cells, anti-human-APC

Row | binding | Binder
1 | binds | B1
2 | binds | B2
3 | binds | B3
4 | binds | B4
5 | binds | B5
6 | binds | B6
7 | binds | B7
8 | binds | B8
9 | binds | B9
10 | binds | B10
11 | binds | B11
12 | binds | B12
13 | binds | B13
14 | binds | B14
15 | binds | B15
16 | binds | B16
17 | binds | B17
18 | binds | B18
19 | binds | B19
20 | binds | B20
21 | binds | B21
22 | binds | B22
23 | binds | B23
24 | binds | B24
25 | binds | B25
26 | binds | B26
27 | binds | B27
28 | binds | B28
29 | binds | B29
30 | binds | B30

Target: T1, human Jagged 1, full length, on cells
Test: FACS, 293-JAG1 cells

Row | binding | Binder
31 | binds | B1
32 | binds | B2
33 | binds | B3
34 | binds | B4
35 | binds | B5
36 | binds | B6
37 | binds | B7
38 | binds | B8
39 | binds | B9
40 | binds | B10
41 | binds | B11
42 | binds | B12
43 | binds | B13
44 | binds | B14
45 | binds | B15
46 | binds | B16
47 | binds | B17
48 | binds | B18
49 | binds | B19
50 | binds | B20
51 | binds | B21
52 | binds | B22
53 | binds | B23
54 | binds | B24
55 | binds | B25
56 | binds | B26
57 | binds | B27
58 | binds | B28
59 | binds | B29
60 | binds | B30
